This is one part of the list.

The experiment concerns the target T1, OsSMF1 (Oryza sativa, UniProt Q6ZLB0 1-436).
T1 sequence: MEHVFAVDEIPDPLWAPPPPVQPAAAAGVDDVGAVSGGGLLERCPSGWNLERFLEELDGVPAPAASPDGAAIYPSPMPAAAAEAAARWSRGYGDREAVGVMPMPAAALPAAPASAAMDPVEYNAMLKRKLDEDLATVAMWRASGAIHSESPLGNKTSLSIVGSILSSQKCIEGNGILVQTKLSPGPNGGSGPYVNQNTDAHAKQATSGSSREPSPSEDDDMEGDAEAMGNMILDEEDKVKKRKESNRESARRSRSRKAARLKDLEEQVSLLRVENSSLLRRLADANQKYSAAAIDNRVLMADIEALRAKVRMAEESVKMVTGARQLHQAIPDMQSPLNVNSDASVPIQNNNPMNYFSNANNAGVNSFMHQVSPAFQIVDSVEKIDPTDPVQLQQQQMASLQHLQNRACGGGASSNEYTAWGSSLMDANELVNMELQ
The experiment is described as follows: protein-binding microarray (RPBM); PBS, 2% BSA, 51.3 ng/ul salmon testes DNA, 50 uM zinc acetate, 200 nM TF, 25 C, 1 h; high values mean tight binding. The note with it: protein: recombinant; tags: N-terminal polyhistidine and DsRed monomer fusion (pET32a); chain copies: 2; label: CyDye5-dUTP incorporated in the synthesized complementary strand; 3' TTTTT single-stranded linker to array surface; dsDNA, one strand shown. A digest of the protocol:
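Binding signal here means per-feature fluorescence intensity in arbitrary units. The values were read on an Axon 4000B scanner after a custom Agilent array, double-stranded by primer extension with Cy5-dUTP, was incubated with 200 nM protein at 25 °C for 1 h in PBS with 2% BSA, salmon testes DNA and 50 µM zinc acetate, then washed. The proteins were transcription factors with an N-terminal polyhistidine tag and DsRed, expressed in E. coli BL21-CodonPlus and purified on Ni–NTA.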
“TAGCAGGTTTCCTGCCAACTTGGCACACTTGCTTCGTGGTCGGAGTCACCTAGTGCAG”: the binding signal is 3620 fluorescence intensity (a.u.).

As for “TCTTTATGAAGTCCTTGTCACAGTTGATGACTTGCTTAATCGGAGTCACCTAGTGCAG”, the binding signal was 3650 fluorescence intensity (a.u.). In the case of “AGCCTACTCGAGAACAATGTCAGGATAATCATCCTAATGGCGGAGTCACCTAGTGCAG” it was 3600 fluorescence intensity (a.u.). In the case of “TGACGCCGGTGGGTTTGTGTGTTAGTGTGACATATGTGTGCGGAGTCACCTAGTGCAG” it was 3720 fluorescence intensity (a.u.); in that of “AAGAGCCAGCTCAACATGATGCTTGGTCTGTCCAGGGCCCCGGAGTCACCTAGTGCAG”, 3980 fluorescence intensity (a.u.); in that of “GTTGTAGGCTGACGCAACTGCAATGGCAACATATCCGCTGCGGAGTCACCTAGTGCAG”, 4300 fluorescence intensity (a.u.). On to “ATAGTTCGTTGTCGTGCATGATGTGTACACGAAAGCTTTGCGGAGTCACCTAGTGCAG”, for which the binding signal was 5700 fluorescence intensity (a.u.). For “GTGATTAATAAATAATATACACCTCATATTTAGTGTTGGTCGGAGTCACCTAGTGCAG” the value was 4950 fluorescence intensity (a.u.); for “CCCGCTCAGCCCATGCGCCACCCGCCGCCGCGGCTGCCACCGGAGTCACCTAGTGCAG”, 3560 fluorescence intensity (a.u.); for “AAATGATGTCACACCTTGACGCATGAAATTACCACCACCTCGGAGTCACCTAGTGCAG”, 3430 fluorescence intensity (a.u.). In the case of “GCTTAATGTGTCAACCGGACAGATTTCTGAGAACCTTGCACGGAGTCACCTAGTGCAG” it was 3480 fluorescence intensity (a.u.); in that of “TTAGCAAGTGCCTATGTGAGGATATAGCAATATTTCAATGCGGAGTCACCTAGTGCAG”, 42200 fluorescence intensity (a.u.). In the case of “GCAAGTAAGAGTCGAGTTGAGATGGGAGGTGTAATGTAGGCGGAGTCACCTAGTGCAG” it was 3220 fluorescence intensity (a.u.); in that of “TGTGAGTGTGTGACTAGTGCGGCGACTGTGCAGTGGTGTTCGGAGTCACCTAGTGCAG”, 4110 fluorescence intensity (a.u.). For the sequence “TGTCTTCCCTAAATAGGGTGTGAAGTCATGCTGCATAACGCGGAGTCACCTAGTGCAG”, the binding signal is 3200 fluorescence intensity (a.u.). As for “ATGCCAGCCTAGCCTAGCCCATGTAAGCGCACGTGTTCAGCGGAGTCACCTAGTGCAG”, the binding signal is 3290 fluorescence intensity (a.u.). In the case of “AACTTAATTAGCGGCGAATAGTCGTGACACGTATTTTGTGCGGAGTCACCTAGTGCAG” it was 7020 fluorescence intensity (a.u.); in that of “CCGAGACTGACAACAGTGCAGCCAAGTCAACATCTCACAACGGAGTCACCTAGTGCAG”, 3240 fluorescence intensity (a.u.). For “GCAACAGTGTTATGCAACAGTGTCATTCAGTCTCTACACACGGAGTCACCTAGTGCAG” the value was 32000 fluorescence intensity (a.u.); for “GATCCACCACATCGTCGACGGCCTATCCACAACATCGTCGCGGAGTCACCTAGTGCAG”, 3570 fluorescence intensity (a.u.). Turning to “CGAAGCGATGGTAGGCAGGAACACGCTGTCAGCATAGTTGCGGAGTCACCTAGTGCAG”, the binding signal is 4070 fluorescence intensity (a.u.). For “TTGTTCCTTTACAGTTTACAGTCATCTCTATTGTAGTATTCGGAGTCACCTAGTGCAG” the value was 4220 fluorescence intensity (a.u.); for “CATAGCGCGGGCGGCGGCGGCTGCCAAGCGCCGTCATCTGCGGAGTCACCTAGTGCAG”, 3470 fluorescence intensity (a.u.).

“ACCCACCAAACACATCCACGTCCCTTCACCGTTGGCCTTCCGGAGTCACCTAGTGCAG”: the binding signal was 5980 fluorescence intensity (a.u.). In the case of “AACCTCTGACCTTTTGCGGCCCGCATCTGAGTCACCGACACGGAGTCACCTAGTGCAG” it was 12500 fluorescence intensity (a.u.); in that of “GCCTCCGTAAGGTGGGGTGTGTGTGTGTTGGCCATCGGTGCGGAGTCACCTAGTGCAG”, 3640 fluorescence intensity (a.u.). For “CTCCTCACACATTCCCACGCACACATTTCCCCATGCACATCGGAGTCACCTAGTGCAG” the value was 3180 fluorescence intensity (a.u.); for “TGGTGGTGGTGGTGGTAGGGTTAGGGGTAGGAGGGGTCTCCGGAGTCACCTAGTGCAG”, 3850 fluorescence intensity (a.u.); for “GCGGCGGCTTTCCACCTCCCCGCCGGCTTCGCGCTCCCAACGGAGTCACCTAGTGCAG”, 29900 fluorescence intensity (a.u.).

For the sequence “GGCCGGCGGCGGCGGCAAGAGGAGCCAGCTCACCGTGTTCCGGAGTCACCTAGTGCAG”, the binding signal was 4400 fluorescence intensity (a.u.). In the case of “CGGACGTTTTCTCTCGGGTCAAGACTGCCACGTGTCGACACGGAGTCACCTAGTGCAG”, the binding signal was 18600 fluorescence intensity (a.u.). In the case of “CACCATAGAAATCGATTTGCACCGGTTTCCCAAGACGTGGCGGAGTCACCTAGTGCAG” it was 3280 fluorescence intensity (a.u.); in that of “CCGTCGCACTCAACGCTCTGTTTCACACACGCACGCACCCCGGAGTCACCTAGTGCAG”, 3480 fluorescence intensity (a.u.); in that of “TCGATCGACCTCTGCTGCTGCCTCGCTGTCCTCTGCTACGCGGAGTCACCTAGTGCAG”, 3440 fluorescence intensity (a.u.).

For “GCCCGCCCACGGAGGCGCGCCACGGACACGTCCGGCGCGCCGGAGTCACCTAGTGCAG”, the binding signal is 3180 fluorescence intensity (a.u.). For “CTCCTCCCGTCTCGTCGTCGTCACCGCCGCCGGCTCACCCCGGAGTCACCTAGTGCAG” the value was 5160 fluorescence intensity (a.u.); for “CAAGCCGGGTGGGAAGGGGCGGGACTCCATACTGCTGCCGCGGAGTCACCTAGTGCAG”, 3170 fluorescence intensity (a.u.); for “TGATCAATCAAGAAGACGATCGTGCCGATATCATGGCACCCGGAGTCACCTAGTGCAG”, 3940 fluorescence intensity (a.u.). In the case of “CTTCCTCCTCCGCCGCCGCCGTCGCCGCCCGGACTCACTACGGAGTCACCTAGTGCAG” it was 5340 fluorescence intensity (a.u.); in that of “GATGTAGACAGTGCATCGTTCACACATATGGGAGAGGCATCGGAGTCACCTAGTGCAG”, 22200 fluorescence intensity (a.u.); in that of “AAAATTTAATACGACGAATGTTCAAACGGTGCAAGCAAAACGGAGTCACCTAGTGCAG”, 45000 fluorescence intensity (a.u.).

“GGACGAGGGGAGGTAGCGCCAACGCAACCGCTAGCTGCCGCGGAGTCACCTAGTGCAG”: the binding signal is 3230 fluorescence intensity (a.u.).
